According to article PMC7819943, “Rice protein-binding microarrays: a tool to detect cis-acting elements near promoter regions in rice”:
The list shows a part of the results.

The chains behind the UniProt entries cited, without tags or fusion partners.
UniProt Q0JBA9, entry or part of it: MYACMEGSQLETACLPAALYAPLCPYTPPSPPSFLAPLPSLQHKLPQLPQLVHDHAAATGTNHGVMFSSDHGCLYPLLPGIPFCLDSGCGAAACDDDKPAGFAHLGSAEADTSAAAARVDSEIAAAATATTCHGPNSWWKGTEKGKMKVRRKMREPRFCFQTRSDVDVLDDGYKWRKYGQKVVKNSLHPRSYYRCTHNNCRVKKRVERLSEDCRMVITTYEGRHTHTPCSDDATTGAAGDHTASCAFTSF

These sequences were tested against OsWRKY34 (Oryza sativa, UniProt Q0JBA9 1-250) (assay: protein-binding microarray (RPBM); PBS, 2% BSA, 51.3 ng/ul salmon testes DNA, 50 uM zinc acetate, 200 nM TF, 25 C, 1 h; high values mean tight binding). Conditions: protein: recombinant; tags: N-terminal polyhistidine and DsRed monomer fusion (pET32a); label: CyDye5-dUTP incorporated in the synthesized complementary strand; 3' TTTTT single-stranded linker to array surface; dsDNA, one strand shown.
Method in brief: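 Using Ni–NTA, transcription factors fused N-terminally to polyhistidine and DsRed were purified after expression in E. coli BL21-CodonPlus. These were incubated at 200 nM with a blocked, double-stranded custom Agilent array for 1 h at 25 °C in a buffer containing 50 µM zinc acetate, and the array was washed. The binding signal is per-feature fluorescence intensity (arbitrary units) on an Axon 4000B scanner.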

Sequence | binding signal
GTGGTGGTGGTGGTGCACCCGCGCGGGCATGGCGATCGGTCGGAGTCACCTAGTGCAG | 11200 fluorescence intensity (a.u.)
TAGTACGCGTGTCATCGTCGAGCTCGAGCCCATCCATCCACGGAGTCACCTAGTGCAG | 10700 fluorescence intensity (a.u.)
CGGTTTTAATTTTATGTTTTTGTCAAATTCTTTTTGTTTTCGGAGTCACCTAGTGCAG | 9450 fluorescence intensity (a.u.)
TATTTGGTTCTTGTACAATGTTTACTCTGAAATTCAGATTCGGAGTCACCTAGTGCAG | 9780 fluorescence intensity (a.u.)
TACGACACTATTTATTTTCATACTTTGACCACTTGTCTCTCGGAGTCACCTAGTGCAG | 12100 fluorescence intensity (a.u.)
TCAGCCTCGATCTTGCAAGTTGATCCTATCATGATCATCCCGGAGTCACCTAGTGCAG | 9500 fluorescence intensity (a.u.)
ATTAGTATATCCCTTGTAAGCCGCACGGGGAGGGTGCGACCGGAGTCACCTAGTGCAG | 9310 fluorescence intensity (a.u.)
ATATACTCCGTTTTTTTATTTGATGTTTCCGACACGATTGCGGAGTCACCTAGTGCAG | 8750 fluorescence intensity (a.u.)
TACAACAACATGCCTTTTTACTTATGACCCTGATGGATATCGGAGTCACCTAGTGCAG | 9020 fluorescence intensity (a.u.)
AATCACACGGTCATGTTGTAGGTCTTCTCTTCTCCACCCACGGAGTCACCTAGTGCAG | 8740 fluorescence intensity (a.u.)
CCTCTCTCTCTCTCTCACACTGACGACGGCGAGGGCGGGACGGAGTCACCTAGTGCAG | 8220 fluorescence intensity (a.u.)
GTAACAATATTCAACTTGCTTCAAATCAAATACTCCTCTTCGGAGTCACCTAGTGCAG | 8680 fluorescence intensity (a.u.)
GATTCGTATTCGCTCCGTATTTGTATTCGATAATATTCGACGGAGTCACCTAGTGCAG | 9180 fluorescence intensity (a.u.)
TGAAATTTCTACTGTCATGCTTCCTTGTCCCATTACTACACGGAGTCACCTAGTGCAG | 11900 fluorescence intensity (a.u.)
AGTTCATTTCCTCAAAATTTCTGTAAAATTTATCCATTTCCGGAGTCACCTAGTGCAG | 10700 fluorescence intensity (a.u.)
ACTTCTTTTATTTTTTTTCTCCGTGTGGTGGTGGTCTGGCCGGAGTCACCTAGTGCAG | 10100 fluorescence intensity (a.u.)
GCTTCAATCCATATGATCTGTGTAACTGTCTGCCTTCCCTCGGAGTCACCTAGTGCAG | 8240 fluorescence intensity (a.u.)
ATCATCACACCTTTAGTACTTTTACTGCCATTCTTTTTTTCGGAGTCACCTAGTGCAG | 13700 fluorescence intensity (a.u.)
TATCCGGTTTTCTGGTTGAGGGGTATGAATTAGATTCGACCGGAGTCACCTAGTGCAG | 10200 fluorescence intensity (a.u.)
CCTCCGTGTTCCTGTCCGGCATTTATGATTTTCTCGCCTACGGAGTCACCTAGTGCAG | 10100 fluorescence intensity (a.u.)
GCCGCCTCTGCACTGCGCCGCCTGCCTGCCTGCCGCGACCCGGAGTCACCTAGTGCAG | 8810 fluorescence intensity (a.u.)

5 entries drawn at random from those above, as already listed:
Sequence | binding signal
CCTCTCTCTCTCTCTCACACTGACGACGGCGAGGGCGGGACGGAGTCACCTAGTGCAG | 8220 fluorescence intensity (a.u.)
ACTTCTTTTATTTTTTTTCTCCGTGTGGTGGTGGTCTGGCCGGAGTCACCTAGTGCAG | 10100 fluorescence intensity (a.u.)
TATTTGGTTCTTGTACAATGTTTACTCTGAAATTCAGATTCGGAGTCACCTAGTGCAG | 9780 fluorescence intensity (a.u.)
ATTAGTATATCCCTTGTAAGCCGCACGGGGAGGGTGCGACCGGAGTCACCTAGTGCAG | 9310 fluorescence intensity (a.u.)
TATCCGGTTTTCTGGTTGAGGGGTATGAATTAGATTCGACCGGAGTCACCTAGTGCAG | 10200 fluorescence intensity (a.u.)

Next part:

Sequence | binding signal
TCCGTTTCGTTTTATTTGACACCGTTGACTTTTTAGCACACGGAGTCACCTAGTGCAG | 19500 fluorescence intensity (a.u.)
TGATATCTTCTTGTTATTGTTTCCCTTAGTTGTCTGAGATCGGAGTCACCTAGTGCAG | 8300 fluorescence intensity (a.u.)
GCCCCGAGTTTTGATTGGTTATTCGTTGCTGCTTGTAAACCGGAGTCACCTAGTGCAG | 10900 fluorescence intensity (a.u.)
GACGGCCCAGATCACGCGCGCTCCTCCGCTTTCCTTTTCCCGGAGTCACCTAGTGCAG | 8430 fluorescence intensity (a.u.)
TCACACACACGTTCCCAAACTTCTAAACCGTAATTTTAAACGGAGTCACCTAGTGCAG | 8140 fluorescence intensity (a.u.)
CCATTCCATCCAACATTTTGTCCATCCATATCGTCTACTCCGGAGTCACCTAGTGCAG | 9200 fluorescence intensity (a.u.)
TCCATATGCCGTCTATATCTTTTTGTCATGGCAGCAGGAACGGAGTCACCTAGTGCAG | 8210 fluorescence intensity (a.u.)
GTGCTTTACTTACCAGCTGCCTGTTTTTTCTTCTCTTTCCCGGAGTCACCTAGTGCAG | 10500 fluorescence intensity (a.u.)
GCGGTCTCTTTTTGTTAATTCGCATTTCTTTATTTATTTACGGAGTCACCTAGTGCAG | 13000 fluorescence intensity (a.u.)
ATGTAGAGTCATCAGGTTTAGGCGCTTGGGTTTTGTTGGACGGAGTCACCTAGTGCAG | 8070 fluorescence intensity (a.u.)
AAACTGGACGCTTCAATTCCACTGTCCCACTGTCCCACCCCGGAGTCACCTAGTGCAG | 8160 fluorescence intensity (a.u.)
TTCTTATTTGTCAACAATGTTTTTTTTTTGCGGGGATTATCGGAGTCACCTAGTGCAG | 11500 fluorescence intensity (a.u.)
TTTTAATATCATTTTTATTTGTGTTGAAAATTTTACTATACGGAGTCACCTAGTGCAG | 8180 fluorescence intensity (a.u.)
CTCCTCATCCCCACGCCACCGCCGCCATCGCCGGCCTTTTCGGAGTCACCTAGTGCAG | 8220 fluorescence intensity (a.u.)
GCCTTGAATCCACCTGACCTGTGCCTCGTACTCCCATAATCGGAGTCACCTAGTGCAG | 9730 fluorescence intensity (a.u.)
TTGGACACAGGTAGGATGGTTATTTTTTTGGGTGAGAGAACGGAGTCACCTAGTGCAG | 8740 fluorescence intensity (a.u.)
CACATTAACTCAGCCCTGCTTGGCCCTAGACGTGATCAATCGGAGTCACCTAGTGCAG | 8830 fluorescence intensity (a.u.)
ATTCTCCTCTCTCTCAATCGCTTCGCCCACCCGCTTGTCACGGAGTCACCTAGTGCAG | 10600 fluorescence intensity (a.u.)
ACCCAAAACCTACAGCATACACACTTGCTCCATTACACTTCGGAGTCACCTAGTGCAG | 9940 fluorescence intensity (a.u.)
TTCCATGTTGCTATGGCTAGTTATCTTGAGTATTTACGTGCGGAGTCACCTAGTGCAG | 10300 fluorescence intensity (a.u.)
ATATTCCATCGATCCTACAAAATCTAAACAATTGTATGTTCGGAGTCACCTAGTGCAG | 8290 fluorescence intensity (a.u.)

Sequence | binding signal
CCTTGCAACATGAAATTTTTTTTGTCCTGACATACTCATACGGAGTCACCTAGTGCAG | 8150 fluorescence intensity (a.u.)
GGATAATATGTCGATCCATTTTCTGATGCCATATCCCATCCGGAGTCACCTAGTGCAG | 8150 fluorescence intensity (a.u.)
CCCCACCCACCGCCTGCCAGCGCCACCCCACCTCGCGCCTCGGAGTCACCTAGTGCAG | 11800 fluorescence intensity (a.u.)
GTTCTCTCTCTGTATGTGTTTTATTGGAGTATTTGTCAGTCGGAGTCACCTAGTGCAG | 8610 fluorescence intensity (a.u.)
CACCTGTATGCCTACTACTTTTGTCACCAACCCAATCCCCCGGAGTCACCTAGTGCAG | 8330 fluorescence intensity (a.u.)
GTCAAACGTTGGTTAAAAAGTCAACAGCATCATACATTAACGGAGTCACCTAGTGCAG | 10400 fluorescence intensity (a.u.)
TGGGCGCGTATTTTTCGTTTTTTCGTCTGGGCACTCCGTTCGGAGTCACCTAGTGCAG | 11500 fluorescence intensity (a.u.)
ACTCGTCGCCCTCTCATCTCATGTTGTAGTATTCCCTCCGCGGAGTCACCTAGTGCAG | 8600 fluorescence intensity (a.u.)
GGGTGGGCAAGATGCTCCTACGGCGGCTTCTTCTTTTGGCCGGAGTCACCTAGTGCAG | 8270 fluorescence intensity (a.u.)
GGCATGCACCCACCTGGCATTTGCTGGCGCAACGGAGGTCCGGAGTCACCTAGTGCAG | 8090 fluorescence intensity (a.u.)
GCCGCCGCCGCCGCCGCCGCCGCTGTGTGTACGACTACGACGGAGTCACCTAGTGCAG | 8090 fluorescence intensity (a.u.)
CATTTCCTTGTTTGAATCTGCAAGAGTGCTAGTCACAGGCCGGAGTCACCTAGTGCAG | 8470 fluorescence intensity (a.u.)
ATCAACCCGGTGTCTGCGTTACATTTCTCAATCTTCTGCTCGGAGTCACCTAGTGCAG | 9860 fluorescence intensity (a.u.)
TTCTTTAGTCCCATGCTAGTATGATCATGTCCGATTGTCCCGGAGTCACCTAGTGCAG | 9370 fluorescence intensity (a.u.)
GCGGGCGGCAGCGCGGTGGGGCGGTGGCGGTGGTGGCGGCCGGAGTCACCTAGTGCAG | 9980 fluorescence intensity (a.u.)
CGGGAGAGGGAGGTGATGATGGGGCGGCGGAGGATTGGAGCGGAGTCACCTAGTGCAG | 8130 fluorescence intensity (a.u.)
GCCTCTGCCACGCCCACCTCATCCGCCTCTACCTCCGCTCCGGAGTCACCTAGTGCAG | 9000 fluorescence intensity (a.u.)
TTTCTTCTTTCTTTCATGCCTTAAGCATCACGTTTGTCACCGGAGTCACCTAGTGCAG | 8540 fluorescence intensity (a.u.)
ACAGTTACTTTCCTTATAGCAGTGTAGTTGCCGTGAAAACCGGAGTCACCTAGTGCAG | 8810 fluorescence intensity (a.u.)
TATATTGCCCACACCACATGTTGTTCATTGTTGAAGGCACCGGAGTCACCTAGTGCAG | 8290 fluorescence intensity (a.u.)
AAACCTTTATATCATTTTTTATAATTTATGATTTTTGTCTCGGAGTCACCTAGTGCAG | 8410 fluorescence intensity (a.u.)

Sequence | binding signal
ATTTTAAATGTTTCGTTGACTAAATGGGTTGTTATAGCCGCGGAGTCACCTAGTGCAG | 10100 fluorescence intensity (a.u.)
ACTTCTTTATTACCACGCACTTTTCTTCCTTAGTTTTATTCGGAGTCACCTAGTGCAG | 13700 fluorescence intensity (a.u.)
TGTCGTTGTTTGTCCTGCTGCTTCAGAGTTCAGCTGCATCCGGAGTCACCTAGTGCAG | 11300 fluorescence intensity (a.u.)
GCAACCAGCCAGCCAGAAGACTCTTCTATCCTCTTAATTTCGGAGTCACCTAGTGCAG | 8490 fluorescence intensity (a.u.)
CACGTACGCCGCCGTGTCTCATCACGAGCTCGATCGTTTCCGGAGTCACCTAGTGCAG | 8240 fluorescence intensity (a.u.)
CCTAGACTCTACCACCATACCACTATCATCACTTCTTCCGCGGAGTCACCTAGTGCAG | 9330 fluorescence intensity (a.u.)
ACACACAGAGCATTCTTCTTTCATGTCTTGTGATCCTTTTCGGAGTCACCTAGTGCAG | 9250 fluorescence intensity (a.u.)
TCATCTGTTTTACGCCGTGTTTAGTTTTAAAGTTTTTTTTCGGAGTCACCTAGTGCAG | 8260 fluorescence intensity (a.u.)
GATACTTGGTAATGCACACCCGTGAGTTGGCTACTTTCTCCGGAGTCACCTAGTGCAG | 10200 fluorescence intensity (a.u.)
AACGCTGCCGACTATAAATCATCGTATATCACTAACTTTGCGGAGTCACCTAGTGCAG | 8520 fluorescence intensity (a.u.)
TTTTCTTTTGCCATGGTTTATGCAGGAGTTGAACTTATTTCGGAGTCACCTAGTGCAG | 8200 fluorescence intensity (a.u.)
GATTGACGAATACTTGCATAACCGGTGTTTCCAGTTTCCGCGGAGTCACCTAGTGCAG | 8260 fluorescence intensity (a.u.)
TATACTCTGGTCGTCTCTCGCCAGCTCTGCTCTTCGAGATCGGAGTCACCTAGTGCAG | 8330 fluorescence intensity (a.u.)
ATTTACTCACTCAACTCATTTCCCTGATCGTATTGAATCCCGGAGTCACCTAGTGCAG | 9740 fluorescence intensity (a.u.)
GATCCATCTTCTTTGTAACATTTCTTATCTTTCATGTAATCGGAGTCACCTAGTGCAG | 8550 fluorescence intensity (a.u.)
AATTTTCTGCTTCTGTCTGACCTGTTCCATGGATAAAATTCGGAGTCACCTAGTGCAG | 10600 fluorescence intensity (a.u.)
ACCGTTCCTCCTATTGTTCAATGGCGAGTCTTTTACTACTCGGAGTCACCTAGTGCAG | 8120 fluorescence intensity (a.u.)
ATCATCATATTATTATTACGGTTCTCAATACAAATTGCAACGGAGTCACCTAGTGCAG | 8720 fluorescence intensity (a.u.)
GAAAACCCCTTACGACATCCGGTCAAACTTCCGATGTGACCGGAGTCACCTAGTGCAG | 8260 fluorescence intensity (a.u.)
TGGCTGCAATTTTCACCATATCATCAAAAGTTGGTTTAGGCGGAGTCACCTAGTGCAG | 9520 fluorescence intensity (a.u.)
ACGCGTTGTGAGCGTCTACATGTAGCATGTTTTTTTTTTACGGAGTCACCTAGTGCAG | 10200 fluorescence intensity (a.u.)
